Assay results from US20240383975A1, “COMPOSITION FOR TREATING OR PREVENTING IMMUNOLOGICAL ABNORMAL INFLAMMATORY DISEASES” (priority 2021, published 2024).
For at least one compound, name, drawing or mass did not settle the structure.

Tested on: iMCD-NOS NSG mice
Assay: In vivo therapeutic experiments in the PDX model: survival of iMCD-NOS NSG mice (Example 4)
Settings: LN cells of patient iMCD-NOS8, rapamycin 40 ug/mouse i.p. daily for 4 weeks, FIG. 5C

## CO[C@H]1C[C@@H]2CC[C@@H](C)[C@@](O)(O2)C(=O)C(=O)N2CCCC[C@H]2C(=O)O[C@H]([C@H](C)C[C@@H]2CC[C@@H](O)[C@H](OC)C2)CC(=O)[C@H](C)/C=C(\C)[C@@H](O)[C@@H](OC)C(=O)[C@H](C)C[C@H](C)/C=C/C=C/C=C/1C [Rapamycin, rapamycin]
  mice able to survive within the observation period: about half
Vs isotype IgG
  survival of iMCD-NOS NSG mice: significantly improved
